According to PubChem BioAssay AID540276 (National Center for Advancing Translational Sciences (NCATS), 2011):
Hit rate of the full screen: of about 300,000 compounds, about 5,400 (1.8%) were called active. Inconclusive means that the source gave no clear call. Such entries were picked first, then a sample of the others. Calls follow the shape of the full dose curve; tested in HEK293 cells. Potencies of inconclusive entries are doubtful fits and often do not repeat.

experiment: qHTS for inhibitors of binding or entry into cells for Marburg Virus; details: Marburg virus pseudotyped entry inhibition, cell reporter; activity change, negative = inhibition: at 37.8 µM (top of the series) unless noted
% is scaled to controls: 0 for no effect and ±100 for the full control effect; potency is read from the fitted curve at half-maximal effect.

| Structure (SMILES) | Potency | activity change, negative = inhibition |
| --- | --- | --- |
| ClC(Cl)(Cl)c1nc(N/N=C/c2ccncc2)c2ccccc2n1 | inconclusive: 7.08 µM [inhibitor, partial curve, poor fit] | – |
| Cc1occc1C(=O)Nc1ccc(S(=O)(=O)N2CCCC2)cc1 | inactive | – |
| CN1CCN(CCCOc2ccc(-c3ccccc3)cc2)CC1 | inconclusive: 15.8 µM [inhibitor, single point] | – |
| CC1CCCCN1CCNS(=O)(=O)c1ccc2c(c1)oc(=O)n2C (configuration not stated) | inactive | – |
| Fc1ccc(Cc2cn3cc(-c4ccc(Cl)cc4)nc3s2)cc1 | inconclusive: 2.51 µM [activator, full curve, poor fit] | – |
| O=C(Nc1cccnc1)c1ccc(Cl)cc1[N+](=O)[O-] | inconclusive: 22.4 µM [activator, partial curve, poor fit] | – |
| COc1cc(S(=O)(=O)Nc2cccc(C)c2)ccc1NC(=O)c1cccnc1 | inconclusive: 11.2 µM [inhibitor, partial curve, poor fit] | – |
| COc1ccc(NC(=O)c2sc3nc4c(cc3c2N)CCCCCC4)cc1OC | inactive | – |
| CCOC(=O)C1(C)NC(c2ccc(OC)c(OC)c2)C2C(=O)N(CC)C(=O)C21 (configuration not stated) | inconclusive: 0.92 µM [inhibitor, partial curve, poor fit] | – |
| CCN(CC)c1ccc(CC2C(=O)N(C)C(=O)N(C)C2=O)cc1 | inactive | – |
| COc1ccccc1C(=O)C1CCCN(C(=O)CN2CCCCC2=O)C1 (configuration not stated) | inactive | – |
| O=C(Nc1ccccc1N1CCN(c2ccccc2)CC1)c1ccccc1 | inconclusive: 11.2 µM [inhibitor, partial curve, poor fit] | – |
| CCOC(=O)c1[nH]c(C)c(C(=O)NCCC2=CCCCC2)c1C | inactive | – |
| CC(NC(=O)CN1CCCC1)c1ccccc1 (configuration not stated) | inconclusive: 1.26 µM [inhibitor, single point] | – |
| Clc1ccccc1CN1CCN(/N=C/C=C\c2ccco2)CC1 | inconclusive: 35.5 µM [activator, single point] | – |
| O=C1C2=C(Nc3ccccc3SC2c2ccccc2C(F)(F)F)c2ccccc21 (configuration not stated) | inconclusive: 35.5 µM [inhibitor, single point] | – |
| COc1ccc(C(CNC(=O)c2cc(C)on2)N(C)C)cc1 (configuration not stated) | – | inconclusive: 33.5% [activator] [at 46.1 µM] |
| Cc1cc(NC(=O)COC(=O)c2c(C)nn(Cc3ccccc3Cl)c2Cl)no1 | inconclusive: 20.6 µM [inhibitor, single point] | – |
| Cc1c(/C=N/NC(=O)CNc2ccccc2)c2ccccn2c1C(=O)c1ccccc1 | inactive | – |
| CC(=O)Nc1ccc(NC[C@@H](O)COc2ccccc2)cc1 | inconclusive: 5.62 µM [activator, partial curve, poor fit] | – |
| Cc1[nH]c(=S)c(C#N)c(C)c1C(=O)Nc1ccccc1 | inconclusive: 0.1 µM [inhibitor, full curve, poor fit] | – |

| Structure (SMILES) | Potency | activity change, negative = inhibition |
| --- | --- | --- |
| COc1cc(CNC(C)C23CC4CC(CC(C4)C2)C3)cc(OC)c1OC (configuration not stated) | inconclusive: 4.47 µM [inhibitor, partial curve, poor fit] | – |
| CN(CC(=O)Nc1ccccc1Cl)C(=O)COC(=O)c1ccc(Cl)cc1[N+](=O)[O-] | inactive | – |
| CCN(CC)S(=O)(=O)c1ccc(NC2CCN(Cc3ccccc3)CC2)nc1 | inconclusive: 11.2 µM [inhibitor, partial curve, poor fit] | – |
| Cc1ccc(C)c(CN2C(=O)c3ccccc3S(=O)c3ccc(C(=O)N4CCN(c5ccccn5)CC4)cc32)c1 (configuration not stated) | inconclusive: 0.631 µM [inhibitor, full curve, poor fit] | – |
| O=C(N/N=C/c1ccc([N+](=O)[O-])o1)c1cc(-c2ccc(-c3ccccc3)cc2)nc2ccccc12 | inconclusive: 0.631 µM [inhibitor, full curve, poor fit] | – |
| COc1ccc(Cn2c(=O)sc3ccccc32)cc1OC | inconclusive: 29.1 µM [inhibitor, single point] | – |
| C#CCSc1nc(Cc2ccc(Cl)cc2)nc2ccccc12 | inconclusive: 20.6 µM [inhibitor, partial curve, poor fit] | – |
| CCn1c(C)nc2cc(C(=O)NNS(=O)(=O)c3ccccc3F)ccc21 | inconclusive: 1.78 µM [activator, partial curve, poor fit] | – |
| N#Cc1cc(C(=O)c2cc(Br)ccc2O)cn(Cc2ccccc2)c1=O | inconclusive: 35.5 µM [inhibitor, single point] | – |
| CCNc1c(NC(=O)c2cccs2)c(=O)oc2ccccc12 | inactive | – |
| C=C1CCC[C@]2(C)C[C@H]3OC(=O)C(CNCCN(CC)CC)[C@H]3CC12 (some centres not stated) | inconclusive: 14.1 µM [inhibitor, partial curve, poor fit] | – |
| CCCn1cnc2c(sc3nc4c(cc32)CSC(C)(C)C4)c1=O | inconclusive: 2.91 µM [activator, full curve, poor fit] | – |
| CCSc1nnc(NC(=O)COc2ccccc2[N+](=O)[O-])s1 | inconclusive: 17.8 µM [activator, single point] | – |
| C#CCCCON=C1C[C@@H](O)[C@H](O)[C@H]2[C@@H]3C(=O)N(Cc4ccccc4)C(=O)[C@@H]3CC[C@H]12 | inactive | – |
| COC(=O)c1c(NC(=O)CSc2ncnc3ccccc23)sc(C)c1C | inactive | – |
| CCC1CCCN1Cn1cnc2c([nH]c3ccc(Cl)cc32)c1=O (configuration not stated) | inconclusive: 1.64 µM [activator, partial curve, poor fit] | – |
| CCOC(=O)c1ccc(NC(=O)C(C)Sc2nc(=O)cc(N)n2CCc2ccccc2)cc1 (configuration not stated) | active: 5.01 µM | – |
| COc1ccc(-n2nnnc2SCC(=O)Nc2ccccc2N2CCOCC2)cc1 | inconclusive: 5.62 µM [inhibitor, single point] | – |
| COc1ccc(Cc2noc(CN(C)CCc3ccccc3)n2)cc1OC | inactive | – |
| O=C(NCc1ccc(Cl)cc1)C(=O)N/N=C/c1ccc(Br)cc1 | inconclusive: 23.1 µM [inhibitor, partial curve, poor fit] | – |
| CSCCC(NC(=O)c1ccco1)C(=O)Nc1ccc(C)cn1 (configuration not stated) | inconclusive: 11.2 µM [activator, partial curve] | – |

Three compounds drawn at random from the list so far:

| Structure (SMILES) | Potency | activity change, negative = inhibition |
| --- | --- | --- |
| CCOC(=O)c1ccc(NC(=O)C(C)Sc2nc(=O)cc(N)n2CCc2ccccc2)cc1 (configuration not stated) | active: 5.01 µM | – |
| COc1ccc(Cc2noc(CN(C)CCc3ccccc3)n2)cc1OC | inactive | – |
| O=C(N/N=C/c1ccc([N+](=O)[O-])o1)c1cc(-c2ccc(-c3ccccc3)cc2)nc2ccccc12 | inconclusive: 0.631 µM [inhibitor, full curve, poor fit] | – |
